PubChem BioAssay AID720505, Drosophila RNAi Screening Center, 2013

Screen: 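Fly regulators or components of the CRAC channel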 (primary screen)
Cells: Drosophila S2R+ cells
Knock-down reagent: long dsRNA against Drosophila genes
Conditions: thapsigargin (2 µM) in calcium-free buffer to empty internal stores, then 2 mM calcium added back
Measurement: 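Stores emptied by 2 µM thapsigargin without calcium, then 2 mM calcium re-added; fluo-4 fluorescence followed by FLIPR in 384-well plates, per-well averaged endpoint, raw; two screen passes, some wells retested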
Scale: calcium signal and retest calcium signal: higher = more calcium entry after store depletion
Hit rule: 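Knock-downs counted as hits when calcium entry dropped relative to STIM1 positive and Rho1 negative controls present on each plate; roughly 1500 genes called, with reductions of differing size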
Meaning of the calls: active = called as lowering calcium entry; inactive = not called
The screen tested about 20,000 reagents; this is an unselected part of those with a known target gene and a result. In the full data, about 2,100 (10%) were called active. 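Raw plate signals without normalisation; calls rest on control-based scores that were not deposited; replicate 2 separates called from uncalled poorly.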 A plus sign joins genes that one reagent is predicted to hit. No sequences are given here. Not given: the amount of reagent, the time to read-out.

gene knocked down	amplicon	calcium signal, replicate 1	calcium signal, replicate 2	retest calcium signal, replicate 1	retest calcium signal, replicate 2	activity call
comm (commissureless)	DRSC11336	101	144			inactive
Pur-alpha (Purine-rich binding protein-alpha)	DRSC17166	123	150			inactive
CG34125	DRSC00850	96.8	165			inactive
CG31789	DRSC01645	75.9	138			inactive
Alms1a (Alstrom syndrome 1a)	DRSC18558	84.8	250			active
Pfdn4 (Prefoldin 4)	DRSC09761	116	74.4			inactive
CG17996 + Tsen2	DRSC02650	98.9	110			inactive
CG32762	DRSC18298	154	95.2	6202	137	inactive
mEFG1 (mitochondrial translation elongation factor G 1)	DRSC02758	72.2	136			active
Obp73a (Odorant-binding protein 73a)	DRSC09907	95.1	116			inactive
RpL29 (Ribosomal protein L29)	DRSC04650	113	91.5			inactive
CG3117	DRSC00568	221	141			inactive
Tim17a1	DRSC14184	137	132			inactive
MED27 (Mediator complex subunit 27)	DRSC12205	145	115			inactive
Obp19b (Odorant-binding protein 19b)	DRSC20536	83.7	106			inactive
CG34227	DRSC06788	83.2	122			inactive
CG34227	DRSC07034	97.5	112			inactive
fbl (fumble)	DRSC11886	90.2	119			inactive
Etf-QO (Electron transfer flavoprotein-ubiquinone oxidoreductase)	DRSC06111	102	108			inactive
ImpE1 (Ecdysone-inducible gene E1)	DRSC11195	84.6	44.8			inactive
ImpE1 (Ecdysone-inducible gene E1)	DRSC11196	97.7	87.3			inactive
lncRNA:CR31526 (long non-coding RNA:CR31526)	DRSC21520	157	131			inactive
CG9837	DRSC16573	129	174			inactive
nht (no hitter)	DRSC01976	110	141	120	111	inactive
CR33294 (pseudo)	DRSC22950	95.8	141			inactive
Tsp42Er (Tetraspanin 42Er)	DRSC06183	102	74.6			inactive
Cpr65Aw (Cuticular protein 65Aw)	DRSC08794					active
Isha (Insulator su(Hw) mRNA adaptor)	DRSC04456	145	102			inactive
hep (hemipterous)	DRSC19839	135	93.8			inactive
hep (hemipterous)	DRSC20337	126	90.3			inactive
beat-Ib (beaten path Ib)	DRSC03490	134	123			inactive
CG6277	DRSC16008	160	175			inactive
Vago	DRSC19833	112	125			inactive
CG6154	DRSC15977	275	110			inactive
